# This is one part of the list.
# Legend:
# Test in all cases: protein microarray (ProtoArray v5.0), streptavidin-Alexa Fluor 647
# Details in all cases: 3'-biotin; 20 mM Tris (pH 7.5), 5 mM MgCl2, 100 mM KCl, 0.1% Tween-20, A/T-rich and random oligonucleotide blockers; temperature not stated; high values mean tight binding
# [1] = system: Sperm protein associated with the nucleus on the X chromosome N4 (human)
# [2] = system: Spermatogenesis-associated protein 7 (human)
# [3] = system: Spermine synthase (human)
# [4] = system: StAR-related lipid transfer protein 4 (human)
# Stathmin (human) = system: Stathmin (human)
# [5] = system: Sulfotransferase family cytosolic 1B member 1 (human)
# Suprabasin (human) = system: Suprabasin (human)
# [6] = system: Synaptonemal complex protein 2-like (human)
# Syndecan-1 (human) = system: Syndecan-1 (human)
# Synembryn-A (human) = system: Synembryn-A (human)
# Syntaxin-1B (human) = system: Syntaxin-1B (human)
# [7] = system: T-complex protein 11-like protein 2 (human)
# [8] = system: TAF5-like RNA polymerase II p300/CBP-associated factor-associated factor 65 kDa subunit 5L (human)
# TAGAP (human) = system: TAGAP (human)
# [9] = system: TAK1-like protein (human)
# [10] = system: TBC1 domain family member 13 (human)
# TBC1D21 (human) = system: TBC1D21 (human)
# TBC1D7 (human) = system: TBC1D7 (human)
# TBC1D9B (human) = system: TBC1D9B (human)
# TBCD (human) = system: TBCD (human)
sequence,measurement,setting,value
GGGGACAGGGGTATGGGGAGGGG [G4-3 biotinylated (CtG)],binding signal,[1],5.79 z-score
same,binding signal,[2],-0.347 z-score
same,binding signal,[3],-0.327 z-score
same,binding signal,[4],-0.319 z-score
same,binding signal,Stathmin (human),-0.34 z-score
same,binding signal,[5],-0.324 z-score
same,binding signal,Suprabasin (human),-0.339 z-score
same,binding signal,[6],-0.309 z-score
same,binding signal,Syndecan-1 (human),-0.306 z-score
same,binding signal,Synembryn-A (human),-0.33 z-score
same,binding signal,Syntaxin-1B (human),-0.318 z-score
same,binding signal,[7],-0.336 z-score
same,binding signal,[8],-0.318 z-score
same,binding signal,TAGAP (human),-0.31 z-score
same,binding signal,[9],-0.327 z-score
same,binding signal,[10],-0.343 z-score
same,binding signal,TBC1D21 (human),-0.331 z-score
same,binding signal,TBC1D7 (human),-0.333 z-score
same,binding signal,TBC1D9B (human),-0.334 z-score
same,binding signal,TBCD (human),-0.327 z-score

# 2 entries picked at random from those above, as already listed:
sequence,measurement,setting,value
GGGGACAGGGGTATGGGGAGGGG [G4-3 biotinylated (CtG)],binding signal,[3],-0.327 z-score
same,binding signal,TBC1D21 (human),-0.331 z-score
